# Laboratory results reported in the supplement of paper PMC4604168 (melanoma cell lines).
# The other results are listed elsewhere or left out. Many values rest on one well or one pass, so single values are uncertain.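 The apoptosis fraction was the count of cleaved-PARP antibody-stained nuclei relative to all DNA-stained nuclei, imaged in 1,536-well plates. Screening doses were set so most cells survived, and baseline and induced cleaved-PARP levels vary greatly across cell lines.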
# How the values were obtained:
# Assay in all cases: cleaved PARP positive nuclei fraction relative to DMSO control; melanoma cells; higher = more apoptosis
# Settings in all cases: library dose: low library concentration; 72 h
# MZ2-MEL = tested on: MZ2-MEL
# MeWo = tested on: MeWo
# RPMI7951 = tested on: RPMI7951
# RVH-421 = tested on: RVH-421
# SkMel28 = tested on: SkMel28
# SkMel30 = tested on: SkMel30
# UACC62 = tested on: UACC62
# WM115 = tested on: WM115
# WM1716 = tested on: WM1716
# WM1745 = tested on: WM1745
# WM3526 = tested on: WM3526
# WM3619 = tested on: WM3619
# WM451Lu = tested on: WM451Lu
# SkMel2 = tested on: SkMel2
# SkMel5 = tested on: SkMel5
# UACC257 = tested on: UACC257
Compound,cleaved PARP positive nuclei fraction (MZ2-MEL) [%],cleaved PARP positive nuclei fraction (MeWo) [%],cleaved PARP positive nuclei fraction (RPMI7951) [%],cleaved PARP positive nuclei fraction (RVH-421) [%],cleaved PARP positive nuclei fraction (SkMel28) [%],cleaved PARP positive nuclei fraction (SkMel30) [%],cleaved PARP positive nuclei fraction (UACC62) [%],cleaved PARP positive nuclei fraction (WM115) [%],cleaved PARP positive nuclei fraction (WM1716) [%],cleaved PARP positive nuclei fraction (WM1745) [%],cleaved PARP positive nuclei fraction (WM3526) [%],cleaved PARP positive nuclei fraction (WM3619) [%],cleaved PARP positive nuclei fraction (WM451Lu) [%],cleaved PARP positive nuclei fraction (SkMel2) [%],cleaved PARP positive nuclei fraction (SkMel5) [%],cleaved PARP positive nuclei fraction (UACC257) [%]
"O=c1[nH]nc(Sc2ncc([N+](=O)[O-])s2)n1-c1ccc2c(c1)OCCO2 + CO[C@H]1C[C@@H]2CC[C@@H](C)[C@@](O)(O2)C(=O)C(=O)N2CCCC[C@H]2C(=O)O[C@H]([C@H](C)C[C@@H]2CC[C@@H](OCCO)[C@H](OC)C2)CC(=O)[C@H](C)/C=C(\C)[C@@H](O)[C@@H](OC)C(=O)[C@H](C)C[C@H](C)/C=C/C=C/C=C/1C [everolimus] (first compound 0.2 µM, partner dose 0.02 µM)",160,83.4,235,141,161,117,130,175,50.3,109,183,145,142,,,
"N#CC[C@H](C1CCCC1)n1cc(-c2ncnc3[nH]ccc23)cn1 [ruxolitinib] + C[C@]1(c2nc3c(C(N)=O)cccc3[nH]2)CCCN1 [Veliparib] (first compound 1 µM, partner dose 1.4 µM)",113,217,159,813,36.6,53.3,98.3,103,402,107,64.5,94.8,73.2,,,
"O=c1[nH]nc(Sc2ncc([N+](=O)[O-])s2)n1-c1ccc2c(c1)OCCO2 + NC(=O)c1ccc(N(C(N)=O)c2c(F)cccc2F)nc1-c1ccc(F)cc1F [VX702] (first compound 0.2 µM, partner dose 0.4 µM)",93.6,98.6,202,104,180,96.2,49.8,81.8,30.3,107,67.4,71.7,49.1,,,
"Cc1ccc(Nc2nccc(N(C)c3ccc4c(C)n(C)nc4c3)n2)cc1S(N)(=O)=O [Pazopanib] + O=C(O)c1ccc(-c2c[nH]c3ncc(-c4ccccc4)cc23)cc1C1CCCC1 [GSK650394] (first compound 0.4 µM, partner dose 0.16 µM)",,54.5,161,28.2,68.1,74.6,87.1,165,56.1,81.2,136,87,120,75.6,288,155
"COc1cc([C@@H]2c3cc4c(cc3[C@@H](O[C@@H]3O[C@@H]5CO[C@@H](C)O[C@H]5[C@H](O)[C@H]3O)[C@H]3COC(=O)[C@H]23)OCO4)cc(OC)c1O [etoposide] + CC(C)CCN1c2nc(Nc3cc(F)c(O)c(F)c3)ncc2N(C)C(=O)C1C [BID1870] (first compound 0.02 µM, partner dose 0.2 µM)",127,,89.5,106,,96.8,74.5,122,99.3,90.3,45.6,106,102,72.3,85.6,149
"Cc1cn(-c2cc(NC(=O)c3ccc(C)c(Nc4nccc(-c5cccnc5)n4)c3)cc(C(F)(F)F)c2)cn1 [nilotinib] + CNC(=O)c1cc(Oc2ccc(NC(=O)Nc3ccc(Cl)c(C(F)(F)F)c3)cc2)ccn1 [sorafenib] (first compound 0.2 µM, partner dose 0.4 µM)",134,69.6,114,50.3,,67,108,50.8,164,99,78.8,82.7,87.1,58.7,,
"Cc1cc(Nc2cc(N3CCN(C)CC3)nc(Sc3ccc(NC(=O)C4CC4)cc3)n2)n[nH]1 [Tozasertib] + O=C(O)c1ccc2c(c1)nc(Nc1cccc(Cl)c1)c1ccncc12 [CX4945] (first compound 0.006 µM, partner dose 0.4 µM)",108,106,66.4,81.5,44.6,55.2,108,118,39.5,105,100,103,43.3,,,
"CC[C@]1(O)C[C@H]2CN(CCc3c([nH]c4ccccc34)[C@@](C(=O)OC)(c3cc4c(cc3OC)N(C=O)[C@H]3[C@@](O)(C(=O)OC)[C@H](OC(C)=O)[C@]5(CC)C=CCN6CC[C@]43[C@@H]65)C2)C1 [vincristine] + O=C1NC(=O)/C(=C/c2ccc(-c3ccc(F)cc3O)o2)S1 [AS252424] (first compound 0.0001 µM, partner dose 1 µM)",,85.3,102,25.2,167,139,266,1000,317,102,96.3,99.4,73.7,39.7,78,325
"O=C(Nc1cc(C(F)(F)F)cc(C(F)(F)F)c1)c1cc(Cl)ccc1O + CO[C@H]1C[C@@H]2CC[C@@H](C)[C@@](O)(O2)C(=O)C(=O)N2CCCC[C@H]2C(=O)O[C@H]([C@H](C)C[C@@H]2CC[C@@H](OCCO)[C@H](OC)C2)CC(=O)[C@H](C)/C=C(\C)[C@@H](O)[C@@H](OC)C(=O)[C@H](C)C[C@H](C)/C=C/C=C/C=C/1C [everolimus] (first compound 0.016 µM, partner dose 0.02 µM)",43.1,156,182,159,285,398,112,137,96.1,118,177,148,108,,,
"Cc1cn(-c2cc(NC(=O)c3ccc(C)c(Nc4nccc(-c5cccnc5)n4)c3)cc(C(F)(F)F)c2)cn1 [nilotinib] + Nc1cccc2c1CN(C1CCC(=O)NC1=O)C2=O [lenalidomide] (first compound 0.2 µM, partner dose 1 µM)",176,200,103,29.9,38,97.5,95.3,129,38,114,81.1,81.5,90.3,,,
"CC[C@]1(O)C[C@H]2CN(CCc3c([nH]c4ccccc34)[C@@](C(=O)OC)(c3cc4c(cc3OC)N(C=O)[C@H]3[C@@](O)(C(=O)OC)[C@H](OC(C)=O)[C@]5(CC)C=CCN6CC[C@]43[C@@H]65)C2)C1 [vincristine] + CCCCCCCCCCCCCCCCCCOP(=O)([O-])OC1CC[N+](C)(C)CC1 [Perifosine] (first compound 0.0001 µM, partner dose 0.4 µM)",147,66,127,48.2,110,259,101,1200,159,190,125,253,140,,,
"Cc1cn(-c2cc(NC(=O)c3ccc(C)c(Nc4nccc(-c5cccnc5)n4)c3)cc(C(F)(F)F)c2)cn1 [nilotinib] + CCc1ccc(CCOc2ccc(CC3SC(=O)NC3=O)cc2)nc1 [pioglitazone] (first compound 0.2 µM, partner dose 2 µM)",,86.6,37.8,151,97.5,22.6,94.2,98.1,151,89.5,77,99.9,94.9,518,73.6,150
"Cc1ccc(Nc2nccc(N(C)c3ccc4c(C)n(C)nc4c3)n2)cc1S(N)(=O)=O [Pazopanib] + CS(=O)(=O)CCNCc1ccc(-c2ccc3ncnc(Nc4ccc(OCc5cccc(F)c5)c(Cl)c4)c3c2)o1 [lapatinib] (first compound 0.4 µM, partner dose 0.8 µM)",72,126,141,199,113,118,51.3,79.6,148,199,84.6,88.6,96.9,,,
"N#CC[C@H](C1CCCC1)n1cc(-c2ncnc3[nH]ccc23)cn1 [ruxolitinib] + Cc1cc(N2CCOCC2)cc2[nH]c(-c3c(NC[C@@H](O)c4cccc(Cl)c4)cc[nH]c3=O)nc12 [BMS536924] (first compound 1 µM, partner dose 0.2 µM)",297,735,80.7,46.2,,132,140,87.8,180,127,110,111,142,56.9,140,107
"Cc1cc(Nc2cc(N3CCN(C)CC3)nc(Sc3ccc(NC(=O)C4CC4)cc3)n2)n[nH]1 [Tozasertib] + CO[C@H]1C[C@@H]2CC[C@@H](C)[C@@](O)(O2)C(=O)C(=O)N2CCCC[C@H]2C(=O)O[C@H]([C@H](C)C[C@@H]2CC[C@@H](OCCO)[C@H](OC)C2)CC(=O)[C@H](C)/C=C(\C)[C@@H](O)[C@@H](OC)C(=O)[C@H](C)C[C@H](C)/C=C/C=C/C=C/1C [everolimus] (first compound 0.006 µM, partner dose 0.02 µM)",135,80.6,40.1,122,151,139,244,144,556,139,116,115,44.3,,,
"O=C(Nc1cc(C(F)(F)F)cc(C(F)(F)F)c1)c1cc(Cl)ccc1O + COc1ccc2c(c1)CCC1C2CCC2(C)C(NCCCCCCN3C(=O)C=CC3=O)CCC12 [U73122] (first compound 0.016 µM, partner dose 0.4 µM)",,71.5,95.8,17.4,131,35.3,111,50.3,85.7,81.4,70,75.6,212,57.7,75.8,107
"O=C(Nc1cc(C(F)(F)F)cc(C(F)(F)F)c1)c1cc(Cl)ccc1O + C=CCn1c(=O)c2cnc(Nc3ccc(N4CCN(C)CC4)cc3)nc2n1-c1cccc(C(C)(C)O)n1 [MK1775] (first compound 0.016 µM, partner dose 0.02 µM)",,110,43.3,184,66.9,135,73.3,102,83.6,99,100,196,127,157,297,88.8

# A different layout for part of the listing above.
Compound | cleaved PARP positive nuclei fraction (MZ2-MEL) [%] | cleaved PARP positive nuclei fraction (MeWo) [%] | cleaved PARP positive nuclei fraction (RPMI7951) [%] | cleaved PARP positive nuclei fraction (RVH-421) [%] | cleaved PARP positive nuclei fraction (SkMel28) [%] | cleaved PARP positive nuclei fraction (SkMel30) [%] | cleaved PARP positive nuclei fraction (UACC62) [%] | cleaved PARP positive nuclei fraction (WM115) [%] | cleaved PARP positive nuclei fraction (WM1716) [%] | cleaved PARP positive nuclei fraction (WM1745) [%] | cleaved PARP positive nuclei fraction (WM3526) [%] | cleaved PARP positive nuclei fraction (WM3619) [%] | cleaved PARP positive nuclei fraction (WM451Lu) [%] | cleaved PARP positive nuclei fraction (SkMel2) [%] | cleaved PARP positive nuclei fraction (SkMel5) [%] | cleaved PARP positive nuclei fraction (UACC257) [%]
Cc1cn(-c2cc(NC(=O)c3ccc(C)c(Nc4nccc(-c5cccnc5)n4)c3)cc(C(F)(F)F)c2)cn1 [nilotinib] + Nc1cccc2c1CN(C1CCC(=O)NC1=O)C2=O [lenalidomide] (first compound 0.2 µM, partner dose 1 µM) | 176 | 200 | 103 | 29.9 | 38 | 97.5 | 95.3 | 129 | 38 | 114 | 81.1 | 81.5 | 90.3 |  |  | 
CC[C@]1(O)C[C@H]2CN(CCc3c([nH]c4ccccc34)[C@@](C(=O)OC)(c3cc4c(cc3OC)N(C=O)[C@H]3[C@@](O)(C(=O)OC)[C@H](OC(C)=O)[C@]5(CC)C=CCN6CC[C@]43[C@@H]65)C2)C1 [vincristine] + CCCCCCCCCCCCCCCCCCOP(=O)([O-])OC1CC[N+](C)(C)CC1 [Perifosine] (first compound 0.0001 µM, partner dose 0.4 µM) | 147 | 66 | 127 | 48.2 | 110 | 259 | 101 | 1200 | 159 | 190 | 125 | 253 | 140 |  |  | 
